## Percent effect of library compounds

Source: ChEMBL document CHEMBL3988442, “University of Dundee, Small-Polar-MMV Screening Library” (2021).

Mtb cholesterol medium: 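Growth of Mycobacterium tuberculosis over 4 days (cholesterol / DPPC medium with tyloxapol); the read-out is not stated. Concentration: 50 µM. Higher reads as more growth inhibition (inferred: compounds with an IC50 in retests scored well above the rest). About 69,000 compounds were tested under these conditions; 0.54% (about 370) showed 50% or more at least once.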
Mtb glucose medium: 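Growth of Mycobacterium tuberculosis over 3 days (7H9 medium with glucose and tyloxapol); the read-out is not stated. Concentration: 50 µM. The record gives no direction; compounds that gave an IC50 in retests scored well above the rest, so higher reads as more growth inhibition. About 69,000 compounds were tested under these conditions; 1.1% (about 760) showed 50% or more at least once.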

The filed quantity is “Percent Effect” (%).
The record does not define 0% and 100%; most values in the screen are far below 50% and negative numbers occur (in some assays of this library far below -100).
The compounds are a random part of those screened.
Two or more numbers in one place are separate tests of the same structure; such repeats can differ widely.

* N#CC1(NC(=O)COc2cc(Cl)cc(Cl)c2)CCOCC1 | Mtb cholesterol medium: 0.2569%; Mtb glucose medium: -0.4305% and 22.21%
* O=C(c1cc2c(s1)CCCC2)N1CCCC1Cn1cccn1 (centres unmarked) | Mtb cholesterol medium: 11.43%; Mtb glucose medium: 7.043%
* Cc1cc(CN2CCN(C(=O)CCc3ccco3)CC2)on1 | Mtb cholesterol medium: 32.21%; Mtb glucose medium: 32.27% and 26.48%
* CC(C)NC(=O)N(C)C1CCN(c2ccccc2Cl)C1=O (centres unmarked) | Mtb cholesterol medium: 14.49%; Mtb glucose medium: -2.408%
* Cc1noc(CN2CCN(C(C)C(=O)NCc3cccs3)CC2)n1 (centres unmarked) | Mtb cholesterol medium: -26.98%; Mtb glucose medium: -41.28% and -2.804%
* NC(=O)C(NC(=O)c1ccc(NC2CC2)nc1)c1ccccc1 (centres unmarked) | Mtb cholesterol medium: 0.01116%; Mtb glucose medium: -8.939% and -7.131%
* O=C1N(CCCc2ccccc2)CCCC12CCN(C(CO)CO)C2 (centres unmarked) | Mtb cholesterol medium: -5.464%; Mtb glucose medium: 6.153% and 1.401%
* CN(c1nc(CSc2nnc(Cn3cncn3)o2)cs1)C1CC1 | Mtb cholesterol medium: -6.326%; Mtb glucose medium: -15.17%
* [H][C@@]12CCN(C(=O)Cc3cccc(F)c3)C[C@@]1([H])O[C@H](c1noc(C)n1)C2 | Mtb cholesterol medium: -11.41%; Mtb glucose medium: 17.17%
* OCCNc1nccc(-c2cn3nccc3nc2C2CCCCC2)n1 | Mtb cholesterol medium: 0.317%; Mtb glucose medium: 24.76%
* CC(C)CCC(=O)N1CCCC1c1nnc2n1CCCCC2 (centres unmarked) | Mtb cholesterol medium: -36.42%; Mtb glucose medium: -24.69%
* CC(=O)N1CCC(n2nccc2-c2cnc(NCCO)nc2)CC1 | Mtb cholesterol medium: 7.374%; Mtb glucose medium: 34.57%
* CCc1nc(N2CCCC(CCOC)(C(=O)O)C2)ncc1C (centres unmarked) | Mtb cholesterol medium: 12.46%; Mtb glucose medium: 18.8%
* Cc1cnn(C2CCCN(C(=O)c3cn4ccccc4n3)C2)c1 (centres unmarked) | Mtb cholesterol medium: -24.2%; Mtb glucose medium: 21.64%
* CCc1ncc(C(=O)N2CCCC(c3nccn3CCOC)C2)cn1 (centres unmarked) | Mtb cholesterol medium: -1.475%; Mtb glucose medium: 2.011% and -3.917%
* c1csc(-c2nc(CN3CCN(c4cnccn4)CC3)co2)c1 | Mtb cholesterol medium: 19.59%; Mtb glucose medium: 18.25%
* CC(C)(O)CN1CCN(C(=O)c2cccnc2O)CC1 | Mtb cholesterol medium: 5.926%; Mtb glucose medium: 15.86%
* O=C(O)C(F)(F)F.c1csc(CN2CCCn3cnc(COCC4CC4)c3C2)n1 | Mtb cholesterol medium: 12.24%; Mtb glucose medium: -1.18% and 14.78%
* COc1cccc(CN2CC(O)CN(C(=O)C3CC3)CC2=O)c1OC (centres unmarked) | Mtb cholesterol medium: -10.94%; Mtb glucose medium: 4.841%
* O=C1Nc2ccccc2CNC12CCN(CC1CCCC1)CC2 | Mtb cholesterol medium: -16.05%; Mtb glucose medium: 10.68%
* O=C(N1CCOCC1)N1CCN(c2ccc(Cl)nn2)C(=O)C1 | Mtb cholesterol medium: 3.112%; Mtb glucose medium: 1.774%
* CCOc1cc(C(=O)N2CCCC(c3noc(C)n3)C2)ccn1 (centres unmarked) | Mtb cholesterol medium: 5.651%; Mtb glucose medium: -21.24%
* Cl.[H][C@]12CN(C(=O)CC(C)(C)C)[C@]([H])(CN1)C2 | Mtb cholesterol medium: -3.556%; Mtb glucose medium: -17.45%
* Cc1csc(N2CCN(CC(=O)NC3CCOCC3)CC2C)n1 (centres unmarked) | Mtb cholesterol medium: 11.95%; Mtb glucose medium: -31.81%
* CC(C)[C@H](NC(=O)NC1CCS(=O)(=O)C1)C(=O)NCc1ccccc1Cl (some centres unmarked) | Mtb cholesterol medium: 3.69%; Mtb glucose medium: -9.977%
* CC(=O)NC1CCCN(c2nc3ccccc3cc2CO)C1 (centres unmarked) | Mtb cholesterol medium: 6.664%; Mtb glucose medium: 5.305% and 2.826%
* Cc1nc(CN(C)c2nccc(C(F)(F)F)n2)cs1 | Mtb cholesterol medium: -5.706%; Mtb glucose medium: 4.807% and 4.036%
* OC(CN1CCOCC1)CN1CCc2c(ncn2C2CC2)C1 (centres unmarked) | Mtb cholesterol medium: -61.83%; Mtb glucose medium: -31.55%
* O=C(c1cnc(Nc2ccccc2)nc1)N1CCS(=O)(=O)CC1 | Mtb cholesterol medium: 13.27% and -5.045%; Mtb glucose medium: 11.02%
* COc1cc(S(=O)(=O)N2CCc3ccc(F)cc32)cc(C(=O)O)c1OC | Mtb cholesterol medium: -8.379%; Mtb glucose medium: 12.21%
* Cc1nnc(-c2cccc(C#N)c2)n1C1CCCN(C(C)C)C1=O (centres unmarked) | Mtb cholesterol medium: 15.7%; Mtb glucose medium: 3.686%
* COC(=O)NCC(=O)NCC1(c2c(F)cccc2F)CCCC1 | Mtb cholesterol medium: -4.045%; Mtb glucose medium: -11.39%
* CN1CC(C(=O)NCc2cccnc2OCC(F)(F)F)CC1=O (centres unmarked) | Mtb cholesterol medium: -37.45%; Mtb glucose medium: -28.12% and -1.184%
* CC(O)(CCc1ccccc1)CNC(=O)c1ccc(F)cc1 (centres unmarked) | Mtb cholesterol medium: -7.346%; Mtb glucose medium: 7.991% and 3.451%
* O=C(O)C(F)(F)F.[H][C@@]12COC[C@@H](CC(=O)N3CCCC3)[C@]1([H])CN(C(=O)c1ccccn1)C2 | Mtb cholesterol medium: 9.83%; Mtb glucose medium: 0.8435%
* Fc1ccc(C2CCCN2Cc2nnnn2C2CC2)cc1 (centres unmarked) | Mtb cholesterol medium: -15.93%; Mtb glucose medium: -29.97%
* Cc1nc2n(n1)CC(NCC(=O)NCCC1=CCCCC1)CC2 (centres unmarked) | Mtb cholesterol medium: 9.05%; Mtb glucose medium: 19.78%
* COc1ncccc1CNc1snc(Cl)c1C#N | Mtb cholesterol medium: -1.44%; Mtb glucose medium: 7.325%
* COc1cc(-c2cc(-c3ccn(C)c3)nc(N)c2C#N)cc(OC)c1O | Mtb cholesterol medium: -13.94%; Mtb glucose medium: 11.29%
* [H][C@]12CCN(C(=O)c3ccc4c(c3)CCC4)CC[C@]1([H])N(C(C)C)C(=O)CO2 | Mtb cholesterol medium: -2.928% and -0.2479%; Mtb glucose medium: -24.64%
* O=C(CCCOCc1ccccc1)N1CCCC(n2cncn2)C1 (centres unmarked) | Mtb cholesterol medium: -23.16%; Mtb glucose medium: 11.91%
* Cc1cc(C)n(Cc2cc(C(=O)N3CCCCC3c3nccs3)n[nH]2)n1 (centres unmarked) | Mtb cholesterol medium: -15.39%; Mtb glucose medium: -36.47%
* CC1CCN(CCCNC(=O)c2ccc(N(C)S(C)(=O)=O)cc2Cl)CC1 | Mtb cholesterol medium: 1.865%; Mtb glucose medium: -5.652%
* [H][C@@]12CC[C@@]([H])(C1)[C@H](Nc1nc(-c3ccncc3)nc3c1cnn3C)C2 | Mtb cholesterol medium: 17.31%; Mtb glucose medium: 27.69%
* COC[C@@H]1CCC[C@]12CN(CCc1ccccc1)CCO2.O=C(O)C(F)(F)F | Mtb cholesterol medium: 14.29%; Mtb glucose medium: -8.857%

Repeated from the top, 3 entries:

| Compound | Mtb cholesterol medium | Mtb glucose medium |
|---|---|---|
| `N#CC1(NC(=O)COc2cc(Cl)cc(Cl)c2)CCOCC1` | 0.2569 | -0.4305 and 22.21 |
| `O=C(c1cc2c(s1)CCCC2)N1CCCC1Cn1cccn1` (centres unmarked) | 11.43 | 7.043 |
| `Cc1cc(CN2CCN(C(=O)CCc3ccco3)CC2)on1` | 32.21 | 32.27 and 26.48 |